PubChem BioAssay AID1259284, Sanger Institute – 2017

- Test: 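Kinase genes needed for growth or acting with cancer drugs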 (primary screen)
- Cells: SW48 human colorectal cancer cells
- Reagents: siRNA pool against human genes
- Treatment: anchor drug BYL719 at 1 µM, cetuximab at 5 µg/ml or trametinib at 10 nM, or DMSO vehicle alone
- Read-out: 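Viability scaled to non-targeting control pool, robust z-score from controls, and synergy scores for each drug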
- Reading the numbers: robust z-score, no drug: higher = more cells survive knock-down; viability, no drug: higher = more viable cells; synergy with BYL719 and synergy with trametinib: higher = stronger combined killing with drug
- Rule for the call: 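Called essential when the robust z-score of viability without drug falls below -3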
- Meaning of the calls: active = essential without drug; inactive = no change without drug
Here is a random part of 794 deposited reagents. In the full data, 16 (2%) were called active. 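Calls concern knock-down without drug only; drug synergy was judged apart, with scores above 0.15 taken as synergy.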 No viability above 1 is reported: the scale is capped. Further read-outs or replicates are left out here. Reagent sequences are not shown. Not stated in the record: the amount of reagent, the time to read-out.

Gene,"robust z-score, no drug","viability, no drug (fraction of control)",synergy with BYL719,synergy with trametinib,Call
EPHB3 (EPH receptor B3),0.426,1,-0.0527,0.0648,inactive
EFNA3 (ephrin A3),0.426,1,-0.0666,-0.0487,inactive
MAP2K3 (mitogen-activated protein kinase kinase 3),0.426,1,-0.0511,0.0432,inactive
SPHK2 (sphingosine kinase 2),0.426,1,-0.122,-0.0143,inactive
STK31 (serine/threonine kinase 31),-1.08,0.871,-0.131,0.0755,inactive
PIK3R3 (phosphoinositide-3-kinase regulatory subunit 3),0.426,1,-0.32,-0.0961,inactive
TAF1L (TATA-box binding protein associated factor 1 like),0.426,1,-0.187,-0.0378,inactive
STK24 (serine/threonine kinase 24),0.426,1,-0.269,-0.082,inactive
TWF1 (twinfilin actin binding protein 1),0.426,1,-0.145,-0.22,inactive
MGA (MAX dimerization protein MGA),-2.48,0.751,-0.183,-0.124,inactive
PRKY (protein kinase Y-linked (pseudogene)),0.426,1,-0.3,-0.0515,inactive
LMTK1 (lemur tail kinase 1),-0.229,0.944,-0.276,-0.0176,inactive
HIPK4 (homeodomain interacting protein kinase 4),0.426,1,-0.181,-0.147,inactive
HIPK1 (homeodomain interacting protein kinase 1),0.426,1,-0.367,-0.314,inactive
"MOS (MOS proto-oncogene, serine/threonine kinase)",-0.62,0.91,-0.0234,0.0323,inactive
NTRK3 (neurotrophic receptor tyrosine kinase 3),0.426,1,-0.212,-0.317,inactive
DGKI (diacylglycerol kinase iota),0.426,1,-0.137,-0.105,inactive
ALPK3 (alpha kinase 3),0.426,1,-0.125,-0.0825,inactive
ADCK1 (aarF domain containing kinase 1),0.426,1,-0.147,0.0849,inactive
"PCK2 (phosphoenolpyruvate carboxykinase 2, mitochondrial)",0.426,1,-0.327,-0.0568,inactive
AXIN2 (axin 2),-0.137,0.952,-0.157,-0.157,inactive
PHKB (phosphorylase kinase regulatory subunit beta),0.426,1,-0.367,-0.305,inactive
CAMK1G (calcium/calmodulin dependent protein kinase IG),0.426,1,-0.146,-0.188,inactive
SRPK3 (SRSF protein kinase 3),0.426,1,-0.346,-0.183,inactive
CDK13 (cyclin dependent kinase 13),0.426,1,-0.277,-0.0731,inactive
MAP4K2 (mitogen-activated protein kinase kinase kinase kinase 2),0.426,1,-0.0915,0.0839,inactive
ACVR2B (activin A receptor type 2B),0.426,1,-0.165,-0.196,inactive
AMER1 (APC membrane recruitment protein 1),0.426,1,-0.107,-0.123,inactive
CERK (ceramide kinase),0.426,1,-0.145,-0.0484,inactive

Continued; the last 4 above are carried over.
Gene,"robust z-score, no drug","viability, no drug (fraction of control)",synergy with BYL719,synergy with trametinib,Call
MAP4K2 (mitogen-activated protein kinase kinase kinase kinase 2),0.426,1,-0.0915,0.0839,inactive
ACVR2B (activin A receptor type 2B),0.426,1,-0.165,-0.196,inactive
AMER1 (APC membrane recruitment protein 1),0.426,1,-0.107,-0.123,inactive
CERK (ceramide kinase),0.426,1,-0.145,-0.0484,inactive
CKB (creatine kinase B),0.426,1,-0.285,-0.272,inactive
MAPKAPK3 (MAPK activated protein kinase 3),-1.86,0.804,-0.0124,-0.104,inactive
MAP3K5 (mitogen-activated protein kinase kinase kinase 5),0.426,1,-0.0376,0.0484,inactive
RPS6KA4 (ribosomal protein S6 kinase A4),0.426,1,-0.191,-0.122,inactive
TNNI3K (TNNI3 interacting kinase),0.426,1,-0.111,-0.124,inactive
"ABL1 (ABL proto-oncogene 1, non-receptor tyrosine kinase)",-1.13,0.866,-0.378,-0.238,inactive
HK3 (hexokinase 3),0.426,1,-0.176,-0.065,inactive
DLG2 (discs large MAGUK scaffold protein 2),0.426,1,-0.185,-0.041,inactive
PIK3CD,-0.542,0.917,-0.164,-0.0816,inactive
MED12 (mediator complex subunit 12),-2.28,0.768,-0.103,-0.132,inactive
KCNH8 (potassium voltage-gated channel subfamily H member 8),-1.24,0.857,-0.0481,0.0965,inactive
TNIK (TRAF2 and NCK interacting kinase),0.426,1,-0.156,-0.128,inactive
ERN1 (endoplasmic reticulum to nucleus signaling 1),-1.13,0.866,-0.0104,-0.0665,inactive
PNCK (pregnancy up-regulated nonubiquitous CaM kinase),0.426,1,-0.176,-0.176,inactive
CLK4 (CDC like kinase 4),0.426,1,-0.0743,0.154,inactive
ADPGK (ADP dependent glucokinase),0.426,1,-0.0443,-0.245,inactive
GATA3 (GATA binding protein 3),-1.16,0.864,-0.166,0.094,inactive
AAK1 (AP2 associated kinase 1),0.426,1,-0.27,-0.147,inactive
"ABL2 (ABL proto-oncogene 2, non-receptor tyrosine kinase)",0.426,1,-0.0115,-0.0346,inactive
CSNK2A2 (casein kinase 2 alpha 2),0.426,1,-0.195,0.107,inactive
GNAS (GNAS complex locus),-1.84,0.806,-0.127,-0.0674,inactive
